Results: paper doi:10.1101/681304
No constants are given. Whether binding was seen depends on the method and setting. In cells and extracts the contact can be indirect. Some results given as binding are weak or reduced against the parent protein; the word gives no strength. Sequences can lack the tags named with a protein.

Sequences of proteins named here, by UniProt entry; tags and fusion partners are left off. Residues count along the entry.
UniProt Q9ULZ3, residues 107-195: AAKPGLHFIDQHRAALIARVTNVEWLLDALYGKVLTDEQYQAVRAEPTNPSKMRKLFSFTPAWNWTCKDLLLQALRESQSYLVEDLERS
UniProt Q9Y2G2, residues 446-536: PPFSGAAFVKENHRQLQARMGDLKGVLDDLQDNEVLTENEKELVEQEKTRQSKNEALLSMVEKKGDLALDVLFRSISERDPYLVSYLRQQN

B1: NLRP1 CARD domain (NLRP1^CARD), NanoBiT-tagged (domain or fragment, UniProt Q9C000 1374-1463)
chain: DAPQLLHFVDQYREQLIARVTSVEVVLDKLHGQVLSQEQYERVLAENTRPSQMRKLFSLSQSWDRKCKDGLYQALKETHPHLIMELWEKG
B2: CASP1 CARD domain (CASP1^CARD), SmBiT- or LgBiT-tagged, P29466 1-91 (domain or fragment)
chain: MADKVLKEKRKLFIRSMGEGTINGLLDELLQTRVLNKEEMEKVKRENATVMDKTRALIDSVIPKGAQACQICITYICEEDSYLAGTLGLSA

Key:
Test in all cases: split reporter
[1] = target: CASP1 CARD domain (CASP1^CARD), SmBiT- or LgBiT-tagged (not stated (human or mouse cDNA cloned)) (UniProt P29466)
[2] = target: ASC CARD domain (ASC^CARD), SmBiT- or LgBiT-tagged (human) (UniProt Q9ULZ3)
[3] = target: T1, CASP1 CARD domain (CASP1^CARD), SmBiT- or LgBiT-tagged (not stated (human or mouse cDNA cloned)), P29466; details: remark: other sources report otherwise
T1 chain: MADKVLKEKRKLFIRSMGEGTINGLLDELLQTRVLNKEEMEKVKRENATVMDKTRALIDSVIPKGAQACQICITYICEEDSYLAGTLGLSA

Molecule | binding [1] | binding [2] | binding [3]
ASC CARD domain (ASC^CARD), SmBiT- or LgBiT-tagged (from UniProt Q9ULZ3 107-195) (domain or fragment) | binds | – | –
CARD8 CARD domain (CARD8^CARD), NanoBiT-tagged (from UniProt Q9Y2G2 446-536) (domain or fragment) | binds | no binding | –
CASP1 CARD domain (CASP1^CARD), SmBiT- or LgBiT-tagged (from UniProt P29466 1-91) (domain or fragment) | – | binds | –
B1 | no binding | binds | –
B2 | – | – | binds
